In paper PMC10384862 (Pharmaceuticals, 2023):
For some assays here: Some peptides are written in HELM: one residue between dots, names in brackets for other building blocks, links after the first $.

Experiments:
[1] = general procedure: Fmoc solid-phase peptide synthesis; 2-chlorotrityl chloride resin (0.25 g, average loading capacity: 1.6 mmol/g); HATU/DIPEA; PyBop/DIPEA for chelator; settings: whole synthesis; for final HPLC purity: HPLC (Waters 2695, diode array detector)
[2] = system: H69-tumor xenograft and organs; experiment: Dosimetry (absorbed dose from 212Pb biodistribution, RADAR mouse phantom); type: in vivo; settings: RBE = 5
[3] = general procedure: Fmoc solid-phase peptide synthesis; 2-chlorotrityl chloride resin; HATU/DIPEA; PyBop/DIPEA for chelator; settings: whole synthesis, scale 40 µmol
[4] = scale of the general procedure 40 µmol

## PEPTIDE1{[DO3AM].[Pip].[dF].C.Y.[dW].K.T.C.T}$PEPTIDE1,PEPTIDE1,4:R3-9:R3$$$V2.0
[1]
  isolated mass: 4.2 mg
[1]; [4]
  final HPLC purity: > 98%
  isolated yield: 7%

## C[C@@H](O)[C@H](NC(=O)[C@@H]1CSSC[C@H](NC(=O)[C@@H](Cc2ccccc2)NC(=O)[C@H]2CC[C@H](CNC(=O)CN3CCN(CC(N)=O)CCN(CC(N)=O)CCN(CC(N)=O)CC3)CC2)C(=O)N[C@@H](Cc2ccc(O)cc2)C(=O)N[C@H](Cc2c[nH]c3ccccc23)C(=O)N[C@@H](CCCCN)C(=O)N[C@@H]([C@@H](C)O)C(=O)N1)C(=O)O [[^212Pb]Pb-eSOMA-01, metal not drawn]
[2]
  Absorbed dose per administered activity, Kidneys: 121.73 ± 14.57 Gy/MBq
  Absorbed dose per administered activity, Large Intestine: 2.03 ± 0.26 Gy/MBq
  Absorbed dose per administered activity, Liver: 9.03 ± 2.24 Gy/MBq
  Absorbed dose per administered activity, Lungs: 3.20 ± 0.40 Gy/MBq
  Absorbed dose per administered activity, Pancreas: 5.40 ± 0.14 Gy/MBq
  Absorbed dose per administered activity, Spleen: 0.73 ± 0.19 Gy/MBq
  Absorbed dose per administered activity, Stomach wall: 5.78 ± 0.77 Gy/MBq
  Absorbed dose per administered activity, Tumor: 35.49 ± 9.89 Gy/MBq
[2]; listed as [^212Pb]Pb-eESOMA-01
  Absorbed dose per administered activity, Kidneys: 121.73 Gy/MBq
  Absorbed dose per administered activity, Tumor: 35.49 Gy/MBq

## DO3AM-D-Phe-cyclo[Cys-Tyr-D-Trp-Lys-Thr-Cys]-Thr-OH [DOTAM-TATE]
[3]
  isolated mass: 6.3 mg
[1]; [4]
  final HPLC purity: > 99%
[1]; scale 40 µmol
  isolated yield: 11%

## D-Phe-cyclo[Cys-Tyr-D-Trp-Lys(ivDde)-Thr-Cys]-Thr
[1]; [4]
  isolated yield: 22%

## DO3AM-Amcha-D-Phe-cyclo[Cys-Tyr-D-Trp-Lys-Thr-Cys]-Thr-OH
[1]; [4]
  final HPLC purity: > 99%
[1]; scale 40 µmol
  isolated mass: 7.4 mg
  isolated yield: 12%
